From PubChem BioAssay AID493014 (National Center for Advancing Translational Sciences (NCATS), 2011)
The campaign covered roughly 340,000 compounds. About 170 (0.05%) were called active. The inconclusive results got no clear call from the source; some entries with a clear call stand among them for comparison. Calls come from the whole dose curve; as a rule, active = well fitted inhibition curve with a large enough effect in the signal ratio, with a control signal flat (not every such curve was filed as active); inconclusive = small, poorly fitted or top-dose-only effect, or effect the other way, or a change in a side signal; inactive = flat fitted curve, though single readings scatter; the % refers to the signal ratio. Where the call is inconclusive, the potency comes from a doubtful curve fit.

Experiment: qHTS Assay to Find Inhibitors of Chronic Active B-Cell Receptor Signaling;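 for activity change, negative = inhibition: plate controls were basal doxycycline-induced cells for no effect and cells given 10 µM MG132 for full effect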
Details: ABC-DLBCL IkBa-CBG/CBR reporter, luminescence ratio (green luciferase fused to IkBa over red control in TMD8 lymphoma cells), 4 h
Procedure, shortened: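 Concentration-response series (up to 46 uM) were applied to TMD8 dual-reporter cells for 4 h at 37C with doxycycline. Green/red ratio, after filter-overlap correction, defined %Activity; red signal alone was normalised to basal cells and zero luminescence.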

[1] = activity change, negative = inhibition: at 46.1 µM (top of the series) unless noted
Potency is the fitted concentration of half-maximal effect.

Structure (SMILES): CC1COC(Cn2c3ccccc3c3ccccc32)O1 (stereo unspecified)
- activity change, negative = inhibition [1]: inconclusive: -0.0537%

Structure (SMILES): Cc1nc2nc(-c3ccc(Cl)cc3)cn2nc1C
- activity change, negative = inhibition [1]: inconclusive: 7.67%

Structure (SMILES): Cn1c2cc(Br)sc2c2cnn(Cc3c(F)cccc3Cl)c(=O)c21
- activity change, negative = inhibition [1]: inconclusive: -8.16%
- activity change, negative = inhibition (at 46.1 µM (top of the series)): inactive: 8.81%

Structure (SMILES): C=CCNc1oc(-c2ccc(OC)cc2)nc1C#N
- activity change, negative = inhibition [1]: inconclusive: 1.49%

Structure (SMILES): c1csc(-c2noc(COc3ccc4c(c3)CCCC4)n2)c1
- activity change, negative = inhibition [1]: inactive

Structure (SMILES): Cc1cccc(N=Nc2ccc(O)c3ncccc23)c1
- activity change, negative = inhibition [1]: inconclusive: -2.31%

Structure (SMILES): Cc1ccc(SCCC(=O)N2CCC(C)CC2)cc1
- activity change, negative = inhibition [1]: inactive

Structure (SMILES): CCc1c(C)nc2nc(SCc3ccccc3Cl)[nH]n2c1=O
- Potency [1]: inconclusive: 20 µM [falling, partial curve]

Structure (SMILES): COc1ccc(C(=O)OC(C(=O)c2ccc(C)cc2)c2ccccc2)cc1 (stereo unspecified)
- Potency [1]: inconclusive: 11.2 µM [rising, partial curve, poor fit]

Structure (SMILES): Cc1ccccc1NC(=O)COC(=O)CCC(=O)c1cccs1
- activity change, negative = inhibition [1]: inconclusive: -1.46%

Structure (SMILES): O=C(CCNC(=O)c1ccccc1)NCCc1ccc(Cl)cc1
- activity change, negative = inhibition [1]: inactive

Structure (SMILES): CCCCn1c(SCC(=O)N2CCCC2)nnc1-c1ccccc1
- Potency [1]: inconclusive: 9.2 µM [falling, partial curve]

Structure (SMILES): COc1cc(Cl)c(S(=O)(=O)N2CCCC2)cc1Cl
- activity change, negative = inhibition [1]: inactive

Structure (SMILES): O=C(CCNC(=O)c1ccccc1)N/N=C/c1ccc([N+](=O)[O-])cc1
- activity change, negative = inhibition [1]: inconclusive: -9.39%

Structure (SMILES): O=C1CCC(=O)N1c1ccc(NCCc2cccc(F)c2)c([N+](=O)[O-])c1
- activity change, negative = inhibition [1]: inactive

Structure (SMILES): Cc1ccc(NC(=O)[C@H](CC(C)C)NC(=O)[C@@H]2Cc3ccccc3CN2)cc1
- activity change, negative = inhibition [1]: inconclusive: 0.987%

Structure (SMILES): COc1ccccc1/C=C/c1nc(C#N)c(N(C)C)o1
- activity change, negative = inhibition [1]: inconclusive: 6.55%

Structure (SMILES): Cc1cccc(C)c1NC(=S)NNc1ncc(C(F)(F)F)cc1Cl
- Potency [1]: inconclusive: 14.6 µM [falling, partial curve]

Structure (SMILES): O=C(CCl)N(c1ccccc1)c1c[nH]c2ccccc12
- Potency [1]: inconclusive: 12.6 µM [falling, partial curve]

Structure (SMILES): O=S(=O)(Cc1cc(-c2ccccc2)no1)c1ccccc1
- Potency [1]: inconclusive: 35.5 µM [falling, single point]

Structure (SMILES): CCN1CCN(CCCOc2ccc(Cl)cc2Br)CC1
- Potency [1]: inconclusive: 35.5 µM [rising, partial curve, poor fit]

Structure (SMILES): CCN(C[C@H]1N[C@@](C)(C(=O)OC)[C@H]2C(=O)N(C)C(=O)[C@@H]12)C(=O)C1CCCCC1
- activity change, negative = inhibition [1]: inactive

Structure (SMILES): CC(=O)CSc1nc(N)c(C#N)c(-c2cccs2)c1C#N
- activity change, negative = inhibition [1]: inconclusive: 24.7%

Structure (SMILES): O=C1N[C@@H](c2ccccc2)COC(=O)[C@@H](Cc2ccc(F)cc2)CC/C=C/C[C@@H]1CC(=O)N(CCO)Cc1ccccc1
- activity change, negative = inhibition [1]: inactive

Structure (SMILES): CC1CC1C(=O)Nc1nc(-c2ccccn2)cs1 (stereo unspecified)
- activity change, negative = inhibition [1]: inconclusive: 12.4%

Structure (SMILES): O=C(N/N=C/c1ccc2c(c1)OCO2)c1sc2cccc(Cl)c2c1Cl
- activity change, negative = inhibition [1]: inactive

Structure (SMILES): COc1ccc(-c2noc(CCC(=O)N3CCN(c4ccccc4F)CC3)n2)cc1
- activity change, negative = inhibition [1]: inconclusive: 0.379%

Structure (SMILES): Cc1ccc(C)c(NC(=O)CN(C)C(=O)CN2C(=O)C3CCCCC3C2=O)c1 (stereo unspecified)
- activity change, negative = inhibition [1]: inconclusive: -11.2%

Structure (SMILES): CCCCCC(=O)N/N=C/c1cccs1
- activity change, negative = inhibition [1]: inconclusive: 6.77%

Structure (SMILES): O=C(/C=C/c1ccc(Cl)cc1)Nc1cc(S(=O)(=O)N2CCOCC2)ccc1N1CCOCC1
- activity change, negative = inhibition [1]: inactive

Structure (SMILES): O=C(CCNC(=O)c1ccco1)Nc1cccc(C(F)(F)F)c1
- activity change, negative = inhibition [1]: inconclusive: 0.559%

Structure (SMILES): Cc1nc2sc3c(c2c(=N)n1N)CC(C)(C)OC3
- activity change, negative = inhibition [1]: inactive

Structure (SMILES): Cc1ccc(S(=O)(=O)NCC(=O)N(CC(=O)NC2CCCCC2)CC2CCCO2)cc1 (stereo unspecified)
- Potency [1]: inconclusive: 0.58 µM [falling, full curve, poor fit]

Structure (SMILES): COC(=O)c1cc2c(ccn2-c2ccc(F)cc2)n1CC(=O)C(C)(C)C
- activity change, negative = inhibition [1]: inactive

Structure (SMILES): O=C(CC(SCc1ccco1)c1ccc(O)cc1)c1cccs1 (stereo unspecified)
- activity change, negative = inhibition [1]: inconclusive: 4.26%

Structure (SMILES): CCOc1ccccc1-c1c2cc(O)c(=O)cc-2oc2cc(O)c(O)cc12
- activity change, negative = inhibition [1]: inconclusive: 29.6%

Structure (SMILES): CC(=O)N(C)/C=C1\Sc2ccccc2C1=O
- Potency [1]: inconclusive: 35.5 µM [falling, single point]

Structure (SMILES): CCc1ccc(S(=O)(=O)N2CCN(c3ncccn3)CC2)cc1
- activity change, negative = inhibition [1]: inactive

Structure (SMILES): COC(=O)c1ccc(N=NN2CCCCCC2)cc1
- activity change, negative = inhibition [1]: inconclusive: 8.02%

Structure (SMILES): COc1ccc(Nc2cc(O)c3ncccc3c2)cc1
- activity change, negative = inhibition [1]: inconclusive: -1.22%

Structure (SMILES): COc1cc(C(=O)Sc2ccc(Cl)cc2)cc(OC)c1OC
- activity change, negative = inhibition [1]: inconclusive: -16.9%

Structure (SMILES): COc1ccccc1CNC(=O)c1ccc(SC)cc1OC
- activity change, negative = inhibition [1]: inconclusive: -0.226%

Structure (SMILES): O=C(Nc1nc2ccc(S(=O)(=O)N3CCCC3)cc2s1)C1CCCCC1
- Potency [1]: inconclusive: 23.1 µM [falling, partial curve]

Structure (SMILES): COCCN1C=C2C(=O)C(C)(OC(=O)CCc3ccccc3)C(=O)C=C2C=C1c1ccc(C#N)cc1 (stereo unspecified)
- activity change, negative = inhibition [1]: inconclusive: 11.9%

Structure (SMILES): O=C(CN1CC(=O)Nc2ccccc21)NCCc1ccc(Cl)cc1Cl
- activity change, negative = inhibition [1]: inactive

Structure (SMILES): CCOc1ccccc1NC(=O)NC(=O)N(C)S(=O)(=O)c1ccc(C)cc1
- activity change, negative = inhibition [1]: inactive

Structure (SMILES): CC(NC(=O)C(=O)NCC1CCCO1)c1ccccc1 (stereo unspecified)
- activity change, negative = inhibition [1]: inconclusive: 8.43%

Structure (SMILES): CCOC(=O)CCc1c(C)nc2cc(-c3ccccc3OC)[nH]n2c1=O
- Potency [1]: inconclusive: 16.4 µM [falling, partial curve]

Structure (SMILES): COC(=O)c1ccc(C(C(=O)NCc2ccccc2)N(Cc2ccco2)C(=O)c2cnccn2)cc1 (stereo unspecified)
- activity change, negative = inhibition [1]: inactive

Structure (SMILES): COc1ccc(OC)c(-c2csc(NC(=O)Cc3ccccc3)n2)c1
- activity change, negative = inhibition [1]: inconclusive: 2.4%

Structure (SMILES): COC(=O)CSc1nc2c(c(-c3ccco3)c1C#N)CCCC2
- activity change, negative = inhibition [1]: inconclusive: -1.49%

Structure (SMILES): O=C(N/N=C/c1ccccc1Cl)c1cccc(F)c1
- Potency [1]: inconclusive: 31.6 µM [falling, single point]

Structure (SMILES): Cc1cc(Cl)ccc1NNC(=O)CCc1ccccc1
- activity change, negative = inhibition [1]: inactive

Structure (SMILES): Cc1cc(C)n(CC2CC(=O)N(c3ccc(Cl)c(Cl)c3)C2=O)n1 (stereo unspecified)
- Potency [1]: inconclusive: 14.6 µM [rising, partial curve, poor fit]

Structure (SMILES): O=C(Cn1c(COc2ccccc2)nc2ccccc21)Nc1cc(Cl)c(Cl)cc1Cl
- activity change, negative = inhibition [1]: inconclusive: -16.9%
